Some of the results follow.

Chains of the proteins cited; added tags and fusions are not shown.
UniProt Q0JBA9, entry or part of it: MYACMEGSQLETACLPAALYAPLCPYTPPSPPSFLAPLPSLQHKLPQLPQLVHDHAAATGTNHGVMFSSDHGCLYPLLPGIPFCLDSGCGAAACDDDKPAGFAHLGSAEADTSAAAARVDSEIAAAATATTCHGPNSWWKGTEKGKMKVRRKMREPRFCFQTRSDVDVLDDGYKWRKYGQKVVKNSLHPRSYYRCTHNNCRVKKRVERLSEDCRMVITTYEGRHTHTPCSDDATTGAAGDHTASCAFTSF

The target in the assay is OsWRKY34 (Oryza sativa, UniProt Q0JBA9 1-250). Kind of assay: protein-binding microarray (RPBM); PBS, 2% BSA, 51.3 ng/ul salmon testes DNA, 50 uM zinc acetate, 200 nM TF, 25 C, 1 h; high values mean tight binding. Conditions: protein: recombinant; tags: N-terminal polyhistidine and DsRed monomer fusion (pET32a); label: CyDye5-dUTP incorporated in the synthesized complementary strand; 3' TTTTT single-stranded linker to array surface; dsDNA, one strand shown. Summed up:
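Binding signal here means per-feature fluorescence intensity in arbitrary units. The values were read on an Axon 4000B scanner after a custom Agilent array, double-stranded by primer extension with Cy5-dUTP, was incubated with 200 nM protein at 25 °C for 1 h in PBS with 2% BSA, salmon testes DNA and 50 µM zinc acetate, then washed. The proteins were transcription factors with an N-terminal polyhistidine tag and DsRed, expressed in E. coli BL21-CodonPlus and purified on Ni–NTA.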
Regarding “GCTATTTTTTATATTGTATTTCTATTTGGACTCTTCTTTTCGGAGTCACCTAGTGCAG”, the binding signal is 15500 fluorescence intensity (a.u.).
The same measure for “AATTTGTGTACTACTCGTGATCGATCCATTTGGCCATTAACGGAGTCACCTAGTGCAG”: 8590 fluorescence intensity (a.u.); for “GGAGGAGTACGACGGGGTGGGAGCGGCGGTGGGTGGGATGCGGAGTCACCTAGTGCAG”: 11500 fluorescence intensity (a.u.).
As for “TCCATCCGGCGAGCAGAGCAGGGGAGGGGAGGGGATCCTGCGGAGTCACCTAGTGCAG”, the figure is 14000 fluorescence intensity (a.u.); as for “TGGGGTATGTGTGCTTGGTTATGTGTGCATCTTAGTTATACGGAGTCACCTAGTGCAG”, 19300 fluorescence intensity (a.u.); as for “GAGCTTCCATCTTTTCTGACGACTACTGAATGTGCTATTCCGGAGTCACCTAGTGCAG”, 8670 fluorescence intensity (a.u.).
Turning to “CCGCAACGCAACACGGCCACCGCAGCTTCCTCTCGCCTGACGGAGTCACCTAGTGCAG”, the binding signal is 9380 fluorescence intensity (a.u.).
Turning to “AAGACGACAATGATTTTCCTTCTCACTCGTCATCCCTTGTCGGAGTCACCTAGTGCAG”, the binding signal is 8420 fluorescence intensity (a.u.).
The same measure for “CCGAACACAACCTAAGTTGTCTTCTTATGTGCTTGTTCTTCGGAGTCACCTAGTGCAG”: 8560 fluorescence intensity (a.u.); for “CGTCGCGTCATGTCACCAAACAGCTCGCCTTCCTATTAACCGGAGTCACCTAGTGCAG”: 8830 fluorescence intensity (a.u.); for “AACACACCATCCCCATATCCATGTTTTTGAAAATCTTTGGCGGAGTCACCTAGTGCAG”: 8430 fluorescence intensity (a.u.).
On to “CCTCCGCCGCCGCCGCCGCCGCCGCCATTGGATTAGTTTTCGGAGTCACCTAGTGCAG”, for which the binding signal is 9450 fluorescence intensity (a.u.).
For “GCTCGAAACTGGCCGCTACTGCCACGCACCGCGCCGCGCGCGGAGTCACCTAGTGCAG”, the binding signal is 11400 fluorescence intensity (a.u.).
As for “ATGTAATCCTTATCTTGGGTTGGTAGTATTTAGTTTGCCTCGGAGTCACCTAGTGCAG”, the figure is 10900 fluorescence intensity (a.u.); as for “CAGCGCGCCCTCGGGTGGTGGTGGTGGTATCGGAGGAGTCCGGAGTCACCTAGTGCAG”, 9750 fluorescence intensity (a.u.).
As for “GATACATATTATGTCCCTTTACACTAGGAAGTGTTCAGCACGGAGTCACCTAGTGCAG”, the figure is 8490 fluorescence intensity (a.u.); as for “GATCTTCTCTCGCTCTGAAAAGTCCCATTTTGACTACTTGCGGAGTCACCTAGTGCAG”, 10900 fluorescence intensity (a.u.).
The same measure for “ATGGGGACGGGCTTTTTCTGCAGCAGATTCATGAGCTCGTCGGAGTCACCTAGTGCAG”: 8990 fluorescence intensity (a.u.); for “GACGACGGCGCGTGGCGCGGGCGGGGTTTGAGGGGAGATGCGGAGTCACCTAGTGCAG”: 14600 fluorescence intensity (a.u.).
Turning to “CAACTGCACTATCCATCAGCTCTCCAAGCTGCACCTGCGCCGGAGTCACCTAGTGCAG”, the binding signal was 8200 fluorescence intensity (a.u.).
As to “CCCAACCAGTACCTTCGTTTCTTACACCGCATATCCCGTACGGAGTCACCTAGTGCAG”, the binding signal was 8240 fluorescence intensity (a.u.).
As to “GGTCTTATCCCACGTAGCAAGTTGATTTGGTCATCATCCACGGAGTCACCTAGTGCAG”, the binding signal is 8690 fluorescence intensity (a.u.).
Regarding “GAACCCCACACGCCAGAAATCATAACGTGCAGTCGGCCATCGGAGTCACCTAGTGCAG”, the binding signal was 8170 fluorescence intensity (a.u.).
Regarding “GAAGTGTCCATATTGAGTCATTTGTCCATTTGCCCAGGCACGGAGTCACCTAGTGCAG”, the binding signal is 8300 fluorescence intensity (a.u.).
As for “ACGCGGTCTCCAATACTTTACTTTGACCATTAATTAATACCGGAGTCACCTAGTGCAG”, the figure is 11100 fluorescence intensity (a.u.); as for “GATGTCATATATCTGGTTTTGCTTTTGGGACGATTTTGTACGGAGTCACCTAGTGCAG”, 9180 fluorescence intensity (a.u.).
As for “TCTCGTTTAGTTTGAGTTCGGGCTGGGCGTCCCTTCTTCTCGGAGTCACCTAGTGCAG”, the figure is 12100 fluorescence intensity (a.u.); as for “CCCCAACTCCGCCGCACGCATCCCCGCACCCGCCACCATGCGGAGTCACCTAGTGCAG”, 10200 fluorescence intensity (a.u.).
The same measure for “TCTCGCATTCGTCGTTTGACTAGCTGTTCGGCCGCCGTATCGGAGTCACCTAGTGCAG”: 9000 fluorescence intensity (a.u.).
In the case of “ACACACTTGTCGTAACGTACTCTGCTTTGTTAGCTCTCGGCGGAGTCACCTAGTGCAG”, the binding signal is 11000 fluorescence intensity (a.u.).
As to “AGGTGTGTTTGGATAATGGAAAAATGGGGTGGGATTAGAACGGAGTCACCTAGTGCAG”, the binding signal was 11900 fluorescence intensity (a.u.).
On to “TTTTTGCTCGTAGTATTTGACCGCTCGTCTTATTCAAAAACGGAGTCACCTAGTGCAG”, for which the binding signal was 9640 fluorescence intensity (a.u.).
As for “TGGTTGGCTTGTGGGGTCCACGTGGGCCCTACACTGACTCCGGAGTCACCTAGTGCAG”, the figure is 8490 fluorescence intensity (a.u.); as for “CGAGGTGAGGCGGAGGGGAGGCAGAGGGGTAGAGGAGGGTCGGAGTCACCTAGTGCAG”, 8110 fluorescence intensity (a.u.).
The same measure for “CTCTCTCTCTCTCTCCGCGGCGCGGTCAAAACCCTAGCGCCGGAGTCACCTAGTGCAG”: 8260 fluorescence intensity (a.u.).
The same measure for “TCTCTGTCTCCCTCCCTCCTCCTGCCGCTCACATCAAAATCGGAGTCACCTAGTGCAG”: 9870 fluorescence intensity (a.u.); for “TTAGTTATGACACTCTTGATAATTGCTACACTGGAATATTCGGAGTCACCTAGTGCAG”: 8260 fluorescence intensity (a.u.); for “CCACTCGTTTCACCTCACCTCACCACCGCGCACGACCAGACGGAGTCACCTAGTGCAG”: 9280 fluorescence intensity (a.u.).
As for “GGTAGGTGTATCTGACAGTCTCGAATGTGCCACATCTCTTCGGAGTCACCTAGTGCAG”, the binding signal was 9830 fluorescence intensity (a.u.).
As for “TATCTCCTTTTGCCTTTTATTTTATTTGCTCATTGCATATCGGAGTCACCTAGTGCAG”, the figure is 12100 fluorescence intensity (a.u.); as for “ACTCCGGGCCGCCTCCCGTCTTCTCTTCTCGAGCGGCTCCCGGAGTCACCTAGTGCAG”, 11800 fluorescence intensity (a.u.).
As for “CGTCGAGTATCTGTATCTCTAAGCATTTCTTGTTGACTTTCGGAGTCACCTAGTGCAG”, the figure is 10600 fluorescence intensity (a.u.).

These data come from paper PMC7819943, “Rice protein-binding microarrays: a tool to detect cis-acting elements near promoter regions in rice”.
